# Measured values as given in PubChem BioAssay AID493014 (National Center for Advancing Translational Sciences (NCATS), 2011).
# In all, about 340,000 compounds went through this assay and about 170 (0.05%) were called active. This list was built around the results that the source calls inconclusive (neither active nor inactive); the mix of calls is not that of the screen. The call rests on the fitted dose curve; in most records, active means well fitted inhibition curve with a large enough effect in the signal ratio, with a control signal flat (not every such curve was filed as active); inconclusive means small, poorly fitted or top-dose-only effect, or effect the other way, or a change in a side signal; inactive means flat fitted curve, though single readings scatter; the % refers to the signal ratio. Where the call is inconclusive, the potency comes from a doubtful curve fit.
# Test: qHTS Assay to Find Inhibitors of Chronic Active B-Cell Receptor Signaling;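 on activity change, negative = inhibition: plate controls were basal doxycycline-induced cells for no effect and cells given 10 µM MG132 for full effect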
# Settings: ABC-DLBCL IkBa-CBG/CBR reporter, luminescence ratio (green luciferase fused to IkBa over red control in TMD8 lymphoma cells), 4 h; activity change, negative = inhibition: at 46.1 µM (top of the series)
# Outline: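 TMD8 human ABC-DLBCL cells with doxycycline-inducible IκBα–green luciferase fusion and unfused red luciferase, in 0.5% FBS medium; compounds up to 46 uM, 4 h at 37C. Green/red luminescence ratio, filter-overlap corrected, fitted to concentration-response curves.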
# Potency means the concentration at half of the fitted maximal effect.
SMILES,"activity change, negative = inhibition",Potency
O=[N+]([O-])c1cccc(COc2ncnc3cc([N+](=O)[O-])ccc23)c1,inconclusive: -23.8%,
CCCCOC(=O)Nc1nc(C)c(C(=O)OCC)s1,inconclusive: -21.4%,
O=C(Cc1cn2ccsc2n1)OCc1nc2ccccc2s1,inconclusive: 0.161%,
CCc1ccc(OCC(=O)Nc2cccc3nsnc23)cc1,inconclusive: -8.8%,
CN(C)CCCN(C(=O)C1COc2ccccc2O1)c1nc2cc3c(cc2s1)OCO3 (centres undefined),inconclusive: -5.46%,
Cn1c(=O)[nH]c(=O)c2c1nc(N1CCCCC1)n2CCOc1ccccc1,inconclusive: -1.52%,
COc1cc2cc(C(c3nnnn3C3CCCC3)N(C)C3CCCCC3)c(=O)[nH]c2cc1OC (centres undefined),inactive,
CC1(NC(=O)CC(c2ccccc2)(c2ccccc2)c2ccccc2)CCN(CCCc2ccccc2)C1=O (centres undefined),inconclusive: 9.17%,
O=C(O)CCn1c(-c2ccccc2)cc2ccccc21,inconclusive: 11.4%,
Cc1ccc(C(=O)Nc2nnc(-c3ccco3)o2)cc1C,,"inconclusive: 29.1 µM [cytotoxic, single point]"
CC1CCN(C2(O)C(=O)Nc3ccc([N+](=O)[O-])cc32)CC1 (centres undefined),inactive,
O=c1cc(NC2CCCCC2)c2ccccc2o1,,"inconclusive: 18.4 µM [falling, partial curve, poor fit]"
Cc1cc([N+](=O)[O-])ccc1NC(=S)NC(=O)Cc1ccccc1,inconclusive: 15.9%,
FC(F)(F)c1ccc(-c2nc(=S)[nH][nH]2)cc1,inconclusive: 8.69%,
COc1ccc(S(=O)(=O)NCc2ccc3c(c2)OCO3)cc1C,inconclusive: 11%,
COc1cccc(NC(=O)C(=O)NCCC2CCCCN2S(=O)(=O)c2cccs2)c1 (centres undefined),,"inconclusive: 20.6 µM [falling, partial curve]"
Cc1cc(NC(=O)CSc2nc3c(C)cccc3cc2C#N)no1,inconclusive: 7.34%,
COC(=O)c1ccc(-n2c(/C=C\c3cccc(Br)c3)nc3ccccc3c2=O)cc1,inconclusive: 11.4%,
C=CC(=O)Nc1sc2c(c1C(N)=O)CCCC2,,"inconclusive: 16.4 µM [falling, partial curve, poor fit]"
CCCCCCc1ccc(OC(=O)c2ccncc2)cc1,inactive,
O=C(Nc1nccs1)c1nc[nH]c1C(=O)NCc1ccccc1,inconclusive: 10%,
COc1cc(NCCCC(C)N)c2ncccc2c1 (centres undefined),inconclusive: -3.53%,
O=C(/C=C/c1ccccc1[N+](=O)[O-])N1CCOCC1,inconclusive: -0.724%,
CN(C)CCCN=Cc1c(O)n(Cc2ccc3c(c2)OCO3)c(=O)c2ccccc12,inactive,

# Look-ups from the list.
# O=C(/C=C/c1ccccc1[N+](=O)[O-])N1CCOCC1 – activity change, negative = inhibition: inconclusive: -0.724%
# COc1cc2cc(C(c3nnnn3C3CCCC3)N(C)C3CCCCC3)c(=O)[nH]c2cc1OC (centres undefined) – activity change, negative = inhibition: inactive
